Data: PubChem BioAssay AID602350 (Broad Institute, 2012)
Inconclusive means that the source gave no clear call. Such entries were picked first, then a sample of the others. Active and inactive are the calls of the source.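 How the source made its calls: active means absorbance falls by 30% or more versus neutral controls, with a potency fitted within twice the top valid dose; inconclusive means no clear call, values can overlap the other calls; inactive means change opposite to expected direction, plus the rest.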

The chains behind the UniProt entries cited, without tags or fusion partners. Where a name states a change or a piece, a line headed by the entry shows the natural chain unless it says otherwise.
UniProt P07237: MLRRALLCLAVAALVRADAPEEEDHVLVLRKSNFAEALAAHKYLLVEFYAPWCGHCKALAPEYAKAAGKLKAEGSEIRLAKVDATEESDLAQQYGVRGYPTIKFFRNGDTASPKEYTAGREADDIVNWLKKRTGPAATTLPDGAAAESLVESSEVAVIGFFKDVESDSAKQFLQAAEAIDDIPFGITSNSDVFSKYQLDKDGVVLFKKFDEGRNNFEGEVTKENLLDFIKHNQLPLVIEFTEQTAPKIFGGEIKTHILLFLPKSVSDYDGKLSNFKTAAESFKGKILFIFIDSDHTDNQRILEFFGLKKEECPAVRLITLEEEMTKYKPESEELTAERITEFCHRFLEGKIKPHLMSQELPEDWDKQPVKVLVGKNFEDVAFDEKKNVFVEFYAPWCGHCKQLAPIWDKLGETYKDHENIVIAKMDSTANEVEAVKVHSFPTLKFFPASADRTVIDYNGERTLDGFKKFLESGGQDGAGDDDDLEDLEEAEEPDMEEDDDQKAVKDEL

The molecules below were run against Protein disulfide-isomerase (Homo sapiens) (UniProt P07237) (assay: inhibition of PDI-driven insulin aggregation – biochemical, turbidity, absorbance, cherry-picked samples, dose response (AID 602350;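 further: 0% = neutral controls and -100% = rutin hydrate positive control wells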)). Details: recombinant PDI insulin aggregation, absorbance 650 nm, 90 min; at 19.5 µM (top of the series) unless noted.

Activity change, negative = inhibition, inactive:
CCc1ccc2[nH]c(=O)c(CN(Cc3ccccc3OC)Cc3nnnn3Cc3ccco3)cc2c1 6.81%
O=C(Nc1ccc(Br)cc1F)c1cccnc1 20%
C=CC[C@H](CC(=O)N(CCO)Cc1ccccc1)C(=O)N[C@H](COC(=O)[C@@H](CC=C)Cc1ccc(F)cc1)Cc1c[nH]c2ccccc12 11.1%
Cc1noc(C)c1C(=O)OCC(=O)NCCc1ccc(Cl)cc1 19.9%

Activity change, negative = inhibition, inconclusive:
COC(=O)c1cccc(CSc2nnc(C)s2)c1 -37.8%
COc1ccc(-c2nnc3ccc(SCC(=O)Nc4nc5ccccc5s4)nn23)cc1OC -28.1%
COCC(=O)NC1(c2nnnn2CCOC(=O)Nc2ccc(Cl)cc2)CCCCC1 -56%
CC(C)CCOc1ccc(C2(C)NC(=O)N(CN3CCOCC3)C2=O)cc1 (configuration not stated) -33.5%
COc1ccc(C2C(C(C)=O)=C(O)C(=O)N2CCc2c[nH]c3ccccc23)cc1OC (configuration not stated) -38.5%
O=C(CN1CCN(c2ccc(O)cc2)CC1)Nc1cc(S(=O)(=O)N2CCOCC2)ccc1Cl -48.7%
C[C@@H]1CN([C@H](C)CO)C(=O)c2cccc(NS(C)(=O)=O)c2O[C@@H]1CN(C)Cc1ccc(Oc2ccccc2)cc1 -7.95% [at 21 µM]
CC(=O)C1=C(O)C(=O)N(CCc2c[nH]c3ccccc23)C1c1ccc(O)cc1 (configuration not stated) -27.9%

At a glance, some entries already given:
Activity change, negative = inhibition, inconclusive:
COCC(=O)NC1(c2nnnn2CCOC(=O)Nc2ccc(Cl)cc2)CCCCC1 -56%
CC(C)CCOc1ccc(C2(C)NC(=O)N(CN3CCOCC3)C2=O)cc1 (configuration not stated) -33.5%
